Read-outs that look alike come from different tables or passages of the source. For at least one entry, the source does not settle the construct or the ends of the probe. At least one verdict was read from the data and is not stated in words by the source.

Amino acid sequences for entries named in this document (tags omitted).
UniProt Q8N884, whole entry: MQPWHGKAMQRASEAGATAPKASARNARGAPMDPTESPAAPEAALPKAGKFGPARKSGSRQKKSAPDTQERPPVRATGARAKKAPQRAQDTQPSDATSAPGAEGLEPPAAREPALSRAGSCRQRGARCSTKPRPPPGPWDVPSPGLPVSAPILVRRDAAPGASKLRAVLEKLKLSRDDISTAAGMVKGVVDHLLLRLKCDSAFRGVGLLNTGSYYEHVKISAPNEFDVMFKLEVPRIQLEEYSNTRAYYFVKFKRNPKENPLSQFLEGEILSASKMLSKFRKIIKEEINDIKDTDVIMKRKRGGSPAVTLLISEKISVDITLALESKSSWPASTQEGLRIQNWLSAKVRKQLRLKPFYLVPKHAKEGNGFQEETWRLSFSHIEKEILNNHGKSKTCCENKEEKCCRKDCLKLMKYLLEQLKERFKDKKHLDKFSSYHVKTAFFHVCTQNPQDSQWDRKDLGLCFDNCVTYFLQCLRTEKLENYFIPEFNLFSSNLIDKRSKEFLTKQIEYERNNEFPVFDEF

The series deals with GFP-cGAS (human) (UniProt Q8N884). The series is described as follows: in vitro phase separation (co-condensation). The conditions noted are these: recombinant protein, protein details: GFP, C-terminal 6xHis (pET-28a).

Turning to “AGACGGTATATTTTTGCGTTATCACTGTCCCGGATTGGACACGGTCTTGTGGGATAGGCATGCCCAGAAGGCATATTGGGTTAACCCCTTTTTATTTGTGGCGGGTTTTTTGGAGGACTT (double strand) [HSV120]”, the binding result (HSV120 2.5 uM, 5 min incubation (Fig. S8a). The SPR data are protein-protein (cGAS-PCBP2) and were left out) is recorded as “binds”.

In the case of “CCATCAGAAAGAGGTTTAATATTTTTGTGAGACCATGGAAGAGAGAAAGAGATAAAACTTTTTTACGACT (double strand) [VACV70]”, the binding result (indirect read-out: cGAS-DNA droplets, reduced by PCBP2 but not by KH3-deleted PCBP2, label: Cy3 at 5' end of sense strand when labelled) is listed as “binds”. Consider “TACAGATCTACTAGTGATCTATGACTGATCTGTACATGATCTACA (double strand) [ISD45]”, for which the binding result (indirect read-out: cGAS-DNA droplets, reduced by PCBP2 but not by KH3-deleted PCBP2, HSV120 2.5 uM, 5 min incubation (Fig. S8a). The SPR data are protein-protein (cGAS-PCBP2) and were left out, label: Cy3 at 5' end of sense strand when labelled) was “binds”.

Source of the values: article PMC8943206.
